These are yes or no findings as the source states them, for the method shown. Some results given as binding are weak or reduced against the parent protein; the word gives no strength.

Chains of the proteins cited; added tags and fusions are not shown. Residues count along the entry.
UniProt Q5JZY3, residues 34-1008: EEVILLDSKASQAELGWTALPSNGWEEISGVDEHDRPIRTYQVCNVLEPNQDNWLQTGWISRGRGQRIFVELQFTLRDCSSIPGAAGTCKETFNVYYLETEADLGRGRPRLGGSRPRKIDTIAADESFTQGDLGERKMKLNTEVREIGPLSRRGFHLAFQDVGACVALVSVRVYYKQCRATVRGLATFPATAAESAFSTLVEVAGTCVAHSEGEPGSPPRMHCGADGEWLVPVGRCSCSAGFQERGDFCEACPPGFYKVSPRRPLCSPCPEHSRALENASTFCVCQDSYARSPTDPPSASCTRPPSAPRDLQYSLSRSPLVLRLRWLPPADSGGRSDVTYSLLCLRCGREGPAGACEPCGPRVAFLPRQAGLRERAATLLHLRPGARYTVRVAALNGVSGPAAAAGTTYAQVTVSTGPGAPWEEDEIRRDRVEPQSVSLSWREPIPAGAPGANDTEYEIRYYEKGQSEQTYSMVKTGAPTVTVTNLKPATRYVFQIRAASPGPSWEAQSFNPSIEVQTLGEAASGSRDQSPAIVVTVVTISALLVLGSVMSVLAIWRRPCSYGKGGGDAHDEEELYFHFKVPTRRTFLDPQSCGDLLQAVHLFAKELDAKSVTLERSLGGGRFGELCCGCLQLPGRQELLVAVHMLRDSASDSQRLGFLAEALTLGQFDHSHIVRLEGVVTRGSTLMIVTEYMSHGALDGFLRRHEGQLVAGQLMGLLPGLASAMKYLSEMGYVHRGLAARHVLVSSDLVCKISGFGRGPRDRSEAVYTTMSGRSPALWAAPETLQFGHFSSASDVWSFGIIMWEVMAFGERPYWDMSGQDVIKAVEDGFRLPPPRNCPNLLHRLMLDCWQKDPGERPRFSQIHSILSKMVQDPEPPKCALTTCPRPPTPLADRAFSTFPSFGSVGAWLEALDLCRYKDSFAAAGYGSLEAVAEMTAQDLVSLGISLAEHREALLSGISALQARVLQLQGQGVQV

The record followed here is patent US20220389106A1 (University of Texas, published 2022).

To fix the notation:
B1: anti-hu-EphA10 antibody Clone 8 (antibody, IgG1, V domains shown)
VH: QVQLQQSGPELVKPGPLVKISCKASGYTFTSYDITWVKQRPGQGLEWIGWIYPGDGSTKYNEKFKGKATLTADKSSSTAYMQLSSLTSENSAVYFCARGGRLPYFDYWGQGTTLTVSS
VL: NIVLTQSPASLAVSLGQRATISCRASESVDSYGNSFMHWYQQKPGQPPKLLIYLASNLESAVPARFSGSGSRTDFTLTIDPVEADDAATYYCQQNNEYPWTFGGGTKLEIK
B2: anti-hu-EphA10 antibody Clone 9 (antibody, IgG1, V domains shown)
VH: QVQLQQSGAELMKPGASVKISCKATGYTFSTYWIEWVKQRPGHGLEWIGEILPGSGRTNYKEKFKDKATFTANTSSTTAYMQLSSLTSEDSAVYYCAIDWYWGQGTTLTVSS
VL: QIVLTQSPAIMSASPGEKVTITCSASSSVSYMYWFQQKPGTSPKLWIYSTSNLASGVPARFSGSGSGTSYSLTISRMEAEDAATYYCQQRNSYPPTFGGGTKLEIK
notes: also called anti-EphA10 (clone 9); anti-EphA10 (clone 9)-pHrodo
B3: anti-hu-EphA10 antibody Clone 4 (antibody, IgG1, V domains shown)
VH: EVKLEESGGGLVQPGGSMKLSCVASGFTFSYYWMNWVRQSPEKGLEWVAEIRLKSNNYATHYAESVKGRFTISRDDSKSSVYLQMNNLRAEDSGIYYCTFYYGSSAWFAYWGQGTLVTVSA
VL: DIQMTQSPASLSASVGETVTITCRASENIYSYLAWYQQKQGKSPQLLVYNVKTLTEGVPSRFSGSGSGTQFSLKIDSLQPEDFGSYYCQHHYVTPPTFGAGTKLELK

The target in one assay is hu-EphA10 expressed on cells (human) (UniProt Q5JZY3). Nature of the assay: in vivo antibody tracking, nude mice bearing MDA-MB-231 tumors expressing hu-EphA10, IVIS fluorescence.
With B1, the binding entry is “binds”.

Take B2: the binding entry was “binds”.

For the molecule B3, the binding result is on record as “binds”.

For a further assay the target is unchanged. Briefly: flow cytometry and immunofluorescence staining, BT-549 hu EphA10 stable cells vs BT-549 mock. Background: A flow cytometer gives signals particle by particle.
Turning to B1, the binding entry is given as “binds”.

On to B2, for which the binding result is recorded as “binds”.

As to B3, the binding entry is on record as “binds”.
